Consider three molecules from PMC10070696.

These are yes or no findings as the source states them, for the method shown. For some of these results: Binding seen in cells or lysates may run through a third protein. Some binding calls cover weakened binding; strength is not graded here. Where a sequence is shown, tags or fusion partners need not be part of it.

The target in test [1] is T1, BD-ICE1-3 (C-terminal region of ICE1, amino acids 358-494, ZIP domain, fused to the GAL4 binding domain) (Arabidopsis thaliana) (UniProt Q9LSE2).
T1 sequence: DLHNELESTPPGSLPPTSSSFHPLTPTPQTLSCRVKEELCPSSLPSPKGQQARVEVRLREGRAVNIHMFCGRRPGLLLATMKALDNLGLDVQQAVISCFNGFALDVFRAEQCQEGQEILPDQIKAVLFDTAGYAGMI
Nature of the test: two-hybrid; yeast GAL4 system (Clontech), AD fusion in pGADT7 and BD fusion in pGBKT7 co-transformed into AH109, 30°C for 3 days, growth on SD/-L-W-H-A.

In test [2] the target is T2, BD-ICE1-2 (C-terminal region of ICE1, amino acids 298-494, bHLH and ZIP domains, fused to the GAL4 binding domain) (Arabidopsis thaliana) (UniProt Q9LSE2).
T2 sequence: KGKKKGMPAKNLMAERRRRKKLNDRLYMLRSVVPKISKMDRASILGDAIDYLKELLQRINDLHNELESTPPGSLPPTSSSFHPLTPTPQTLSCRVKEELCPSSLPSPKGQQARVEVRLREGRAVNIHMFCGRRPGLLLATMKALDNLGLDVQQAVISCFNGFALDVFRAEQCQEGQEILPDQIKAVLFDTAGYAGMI
Described as above.

Test [3] deals with T3, cLUC-ICE1 (Arabidopsis thaliana) (UniProt Q9LSE2).
T3 sequence: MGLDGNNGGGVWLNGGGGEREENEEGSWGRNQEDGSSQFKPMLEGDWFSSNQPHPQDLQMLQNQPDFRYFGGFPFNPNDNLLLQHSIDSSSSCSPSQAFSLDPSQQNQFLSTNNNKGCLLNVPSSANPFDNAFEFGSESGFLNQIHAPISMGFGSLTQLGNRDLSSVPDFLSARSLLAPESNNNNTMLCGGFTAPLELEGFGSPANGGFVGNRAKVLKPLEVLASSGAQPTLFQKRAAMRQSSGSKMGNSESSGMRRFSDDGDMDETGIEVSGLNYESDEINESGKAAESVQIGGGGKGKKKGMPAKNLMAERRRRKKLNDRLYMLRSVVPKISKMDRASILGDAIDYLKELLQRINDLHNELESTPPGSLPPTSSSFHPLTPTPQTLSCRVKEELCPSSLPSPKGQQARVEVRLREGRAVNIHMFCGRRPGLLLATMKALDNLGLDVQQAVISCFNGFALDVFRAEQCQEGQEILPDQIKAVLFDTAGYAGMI
Nature of the test: split reporter; firefly luciferase complementation imaging (LCI): nLUC and cLUC fusions co-expressed in tobacco leaves at 22°C for about 48 h, 1 mM D-luciferin sprayed, low-light imaging.

Test [4] deals with T4, cCFP-ICE1 (Arabidopsis thaliana) (UniProt Q9LSE2).
T4 sequence: T3 sequence
As to the kind of experiment: split reporter; BiFC: nYFP and cCFP fusions co-expressed for about 48 h in tobacco (Nicotiana benthamiana) leaf epidermal cells, GFP signal by confocal microscopy.

B1: AD-LFR (Leaf and Flower Related fused to the GAL4 activation domain) (protein, UniProt Q9LS90 1-460)
chain: MQKRELGKSGGNSGGSSGPPAKRGRPFGSTSANSAAAAAAAAAADAMSPSALLGPSLLVHNSFVEQNNRRIVLALQSGLKSEVTWALNTLTLLSFKEKEDIRRDVMPLAKIAGLLDALLLIIDDWRDIALPKDLTRGTRVRTLGTNASVTGFGNEYDALASIQPPGSGIGSSAAEALGKKSTGKHQSSQWWMEEDGLFNLDDEGRSEKQMCAIAASNVIRNFSFMPDNEVVMAQHRHCLETVFQCIHDHMTEDEELVTNSLETIVNLAHLMDLRIFSSLKQSYININEKKAVQAVVGILNSSVKAWNCAAAELLGRLIINPDNEPFISPLIPQIHKRLIDLLSIQAVDAQAAAVGALYNLVEVNMDCRLKLASERWAVDRLLKVIKTPHPVPEVCRKAAMILENLVSEPQNRGLLLAYENAFAELLFQEGKYSDSFARILYELTARSNSRVASARGIWGM
Take B1: the binding entry in test [1] and in test [2] was “binds” throughout.

B2: LFR-nLUC (protein, UniProt Q9LS90 1-460)
chain: B1 chain
For B2, the binding result in test [3] was “binds”.

B3: nYFP-LFR (protein, UniProt Q9LS90 1-460)
chain: B1 chain
B3: in test [4], the binding entry is reported as “binds”.
